# PubChem BioAssay AID686938, Drosophila RNAi Screening Center – 2013
# Aim: 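Looking for CRAC channel components and the factors controlling them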 (primary screen)
# Cells: Drosophila S2R+ cells
# Reagents: long dsRNA against Drosophila genes, about 0.25 µg dsRNA per well, roughly 10,000 cells
# Timing: 5 days of knock-down before the calcium assay
# Conditions: thapsigargin (SERCA pump blocker) to empty calcium stores; entry signal taken 4 min after adding it
# Read-out: 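Per-well fluo-4 fluorescence in two replicates, unnormalised, measured in resting cells and 4 min after store depletion by the SERCA blocker thapsigargin; ratio of the two present in few wells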
# Scale: calcium entry signal: higher = stronger calcium signal after store depletion; resting calcium signal: higher = higher resting calcium signal
# Rule for the call: 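Hit if the duplicate-averaged plate z-score for entry over resting signal is under −3; wells with weak total dye signal (Fmax z < −2) or more than 5 off-targets removed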
# Calls: active = strongly reduced calcium entry; inactive = no strong reduction
# The deposit covers about 23,000 reagents; below is an unselected part of those that have a named target and a result. Over the whole deposit, 75 (0.33%) are marked active. 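Raw plate signals without normalisation; calls rest on plate z-scores that were not deposited; ratio present for only 364 wells.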 Not given: the dose of the treatment.
Target gene,dsRNA,"calcium entry signal, replicate 1 (fluorescence units)","calcium entry signal, replicate 2 (fluorescence units)","resting calcium signal, replicate 1 (fluorescence units)","resting calcium signal, replicate 2 (fluorescence units)",activity call
smo,DRSC00837,3.94e7,,2.25e7,,inactive
Teh4,DRSC08457,4.49e7,4.45e7,2.23e7,1.97e7,inactive
CycY,DRSC02420,4.41e7,,2.18e7,,inactive
ImpL1,DRSC11197,4.72e7,3.48e7,3.00e7,1.56e7,inactive
TotC,DRSC13449,4.13e7,4.09e7,2.18e7,1.86e7,inactive
Ir41a,DRSC04730,2.88e7,5.46e7,1.48e7,2.25e7,inactive
Ir41a,DRSC04875,3.31e7,4.40e7,1.81e7,1.94e7,inactive
CG30289,DRSC03870,3.11e7,7.23e7,1.49e7,3.15e7,inactive
dac,DRSC03518,4.46e7,3.58e7,2.06e7,1.78e7,inactive
meru,DRSC09400,3.53e7,3.52e7,1.57e7,1.58e7,inactive
meru,DRSC09899,3.53e7,5.10e7,1.73e7,2.00e7,inactive
meru,DRSC10215,4.18e7,5.97e7,2.00e7,2.29e7,inactive
Osi12,DRSC12177,3.83e7,2.77e7,1.72e7,1.28e7,inactive
CG33099,DRSC15774,4.28e7,2.84e7,1.98e7,1.39e7,inactive
CG30026,DRSC05276,3.49e7,3.98e7,2.79e7,1.97e7,inactive
kl-5 (retired record),DRSC20707,4.37e7,4.96e7,2.34e7,2.18e7,inactive
kl-5 (retired record),DRSC20736,2.88e7,3.47e7,1.33e7,1.55e7,inactive
kl-5 (retired record),DRSC20773,3.40e7,3.37e7,1.54e7,1.71e7,inactive
kl-5 (retired record),DRSC21161,6.27e7,3.45e7,2.51e7,1.39e7,inactive
lectin-24Db,DRSC00553,5.26e7,,2.78e7,,inactive
CG13185,DRSC06310,2.11e7,2.07e7,1.07e7,1.18e7,inactive
Sox100B,DRSC15090,2.44e7,3.57e7,1.56e7,2.01e7,inactive
Sox100B,DRSC16866,3.53e7,5.40e7,1.86e7,2.21e7,inactive
BoYb,DRSC11637,4.29e7,5.04e7,1.95e7,3.42e7,inactive
